These are yes or no findings as the source states them, for the method shown. Binding seen in cells or lysates may run through a third protein. Here binding means that the protein was enriched with, or labelled near, the bait; the list need not be complete.
Target: HA-Tat (HIV-1 Tat, HA-tagged) (HIV-1) (UniProt P04608)
Assay: affinity purification with mass spectrometry; HA-Tat immunoaffinity purified complexes from HeLa cells, analysed by MudPIT proteomics

Chains of the proteins cited; added tags and fusions are not shown.
UniProt P04608: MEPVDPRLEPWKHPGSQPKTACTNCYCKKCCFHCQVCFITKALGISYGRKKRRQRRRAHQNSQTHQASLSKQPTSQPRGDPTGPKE
UniProt Q9NT62: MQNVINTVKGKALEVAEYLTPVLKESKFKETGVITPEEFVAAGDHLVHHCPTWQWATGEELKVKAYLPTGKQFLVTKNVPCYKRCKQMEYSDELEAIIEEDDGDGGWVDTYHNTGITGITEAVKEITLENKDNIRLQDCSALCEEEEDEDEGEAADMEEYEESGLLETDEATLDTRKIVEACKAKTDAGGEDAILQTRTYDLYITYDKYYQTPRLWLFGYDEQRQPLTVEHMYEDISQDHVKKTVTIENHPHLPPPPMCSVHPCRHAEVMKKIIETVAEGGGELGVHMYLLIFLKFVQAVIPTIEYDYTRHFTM
UniProt P11142: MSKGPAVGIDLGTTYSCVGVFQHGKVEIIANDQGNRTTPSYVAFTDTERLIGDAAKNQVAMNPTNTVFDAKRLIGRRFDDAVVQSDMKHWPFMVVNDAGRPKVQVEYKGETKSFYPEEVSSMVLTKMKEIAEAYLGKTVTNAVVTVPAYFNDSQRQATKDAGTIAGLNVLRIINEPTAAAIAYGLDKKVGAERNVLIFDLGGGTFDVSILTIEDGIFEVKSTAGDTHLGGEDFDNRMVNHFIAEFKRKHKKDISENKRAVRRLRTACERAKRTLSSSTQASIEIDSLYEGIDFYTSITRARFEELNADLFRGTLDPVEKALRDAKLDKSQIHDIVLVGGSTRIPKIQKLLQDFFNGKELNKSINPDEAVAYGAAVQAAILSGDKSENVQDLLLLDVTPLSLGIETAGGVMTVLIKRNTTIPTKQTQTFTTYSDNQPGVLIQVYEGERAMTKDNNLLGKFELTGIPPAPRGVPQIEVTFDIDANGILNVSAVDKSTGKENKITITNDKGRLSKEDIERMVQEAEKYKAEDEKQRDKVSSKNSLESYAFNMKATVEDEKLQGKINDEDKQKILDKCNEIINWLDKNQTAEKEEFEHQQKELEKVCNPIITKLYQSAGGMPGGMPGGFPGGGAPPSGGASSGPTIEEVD
UniProt Q9NP77: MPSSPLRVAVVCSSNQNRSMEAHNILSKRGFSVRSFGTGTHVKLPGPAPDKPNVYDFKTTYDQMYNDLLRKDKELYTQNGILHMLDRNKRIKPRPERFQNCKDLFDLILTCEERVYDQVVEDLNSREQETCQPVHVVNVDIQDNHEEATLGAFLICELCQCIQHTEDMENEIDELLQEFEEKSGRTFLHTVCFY

Row | Substance | binding
1 | ATG3 (from UniProt Q9NT62 1-314) | binds
2 | HSC70 (from UniProt P11142 1-646) | binds
3 | SQSTM1/p62 (from UniProt Q13501 1-440) | binds
4 | SSU72 (from UniProt Q9NP77 1-194) | binds

Source: paper PMC5988312
